Data published in patent US9266817B2, “Catecholamine derivatives for obesity and neurological disorders” (EMORY UNIVERSITY, priority 2009, dated 2016).
At least one compound was matched to its structure with a doubt left.

The chains behind the UniProt entries cited, without tags or fusion partners. Residues count along the entry.
UniProt Q63604, 32-821: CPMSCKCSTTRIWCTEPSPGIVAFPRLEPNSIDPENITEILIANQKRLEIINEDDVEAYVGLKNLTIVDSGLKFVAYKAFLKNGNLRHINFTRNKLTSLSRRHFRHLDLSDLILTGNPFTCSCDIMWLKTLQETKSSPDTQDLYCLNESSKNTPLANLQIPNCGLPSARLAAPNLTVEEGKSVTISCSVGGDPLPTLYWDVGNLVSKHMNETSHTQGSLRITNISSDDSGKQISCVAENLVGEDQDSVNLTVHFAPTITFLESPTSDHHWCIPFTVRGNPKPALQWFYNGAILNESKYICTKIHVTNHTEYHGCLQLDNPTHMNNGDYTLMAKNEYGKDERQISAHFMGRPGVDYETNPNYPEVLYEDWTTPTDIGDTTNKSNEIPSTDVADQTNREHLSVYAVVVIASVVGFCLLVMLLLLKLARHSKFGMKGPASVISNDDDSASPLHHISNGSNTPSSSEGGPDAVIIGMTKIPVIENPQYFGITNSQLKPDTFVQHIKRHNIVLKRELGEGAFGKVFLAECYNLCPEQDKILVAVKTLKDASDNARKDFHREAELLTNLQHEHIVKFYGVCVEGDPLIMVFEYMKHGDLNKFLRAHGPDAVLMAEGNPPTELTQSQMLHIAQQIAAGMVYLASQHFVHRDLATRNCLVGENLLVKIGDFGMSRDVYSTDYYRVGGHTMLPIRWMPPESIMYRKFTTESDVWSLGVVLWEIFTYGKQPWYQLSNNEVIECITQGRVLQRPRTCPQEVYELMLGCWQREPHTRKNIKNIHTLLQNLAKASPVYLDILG

Target: T1, TrkB (Rattus norvegicus, UniProt Q63604)
T1 construct: endogenous in cells; host or cells: primary rat cortical and hippocampal neurons
Test: TrkB activation in cortical neurons after pretreatment with antibodies, receptor antagonists, transporter inhibitors or EDTA (anti-p-TrkB-Y-816 immunoblot)
Assay type: cell-based
Description: Both antidepressants and exercise increase hippocampal BDNF mRNA expression through enhanced 5-HT and/or NE neurotransmission (Siuciak et al., Pharmacol. Biochem. Behav., 56:131-137, 1997; Dias et al., Neuropharmacology, 45:553-563, 2003; Ivy et al., Pharmacol. Biochem. Behav., 75:81-88, 2003; Garza et al., Pharmacol. Biochem. Behav., 77:209-220, 2004). If catecholamines activated TrkB signaling indirectly by promoting BDNF generation, then scavenging BDNF with its specific antibody would be expected to diminish catecholamines-mediated activation of TrkB. Cultured cortical neurons were pretreated with BDNF-IgG for 30 minutes followed by exposure to BDNF (10 ng/ml) or catecholamines (100 nM) for 15 minutes. […] It was then determined whether catecholamines could activate TrkB in neurons cultured from mice carrying a null mutation of BDNF. […]
It was then determined whether catecholamines could activate TrkB in neurons cultured from mice carrying a null mutation of NET.
(§1) The cell lysates were analyzed by immunoblotting with anti-p-TrkB-Y-816.
as §1
A group of primary cortical neurons were pretreated with 1 mM EDTA, and another group of primary cortical neurons were not pretreated. […] The neuronal cell lysates were analyzed by immunoblotting with anti-p-TrkB-Y-816 antibody.

Fc1ccc(C(OCCN2CCN(CCCc3ccccc3)CC2)c2ccc(F)cc2)cc1 [GBR 12909]
Effect of inhibitor on dopamine-mediated TrkB activation: significantly blocked
